# Data taken from patent publication US9682060B2, “Small molecules that induce intrinsic pathway apoptosis” (The Board of Trustees of the University of Illinois, priority 2015, dated 2017).
# At least one structure is not confirmed: it was looked up by name or label, or the drawing left a doubt.
# Tested on: cancer cell lines (HL-60, SK-MEL-5, U-937)
# Test: Initial screens against cancer cell lines
# Type: cell-based, Human
# Details: cancer cells treated 1 hour, extensive washing to remove compound, read at 24-hour mark
smiles,measurement,value
COC1=C2C[C@@H](C)C[C@H](OC)[C@H](O)[C@@H](C)/C=C(\C)[C@H](OC(N)=O)[C@@H](OC)/C=C\C=C(/C)C(=O)NC(=CC1=O)C2=O [Geldanamycin],cell death after short treatment and washout,do not have a similar effect
